doi:10.1101/2025.03.10.25323421
No constants are given. Whether binding was seen depends on the method and setting. In cells and extracts the contact can be indirect. Some binding calls cover weakened binding; strength is not graded here.

The chains behind the UniProt entries cited, without tags or fusion partners.
UniProt P23769: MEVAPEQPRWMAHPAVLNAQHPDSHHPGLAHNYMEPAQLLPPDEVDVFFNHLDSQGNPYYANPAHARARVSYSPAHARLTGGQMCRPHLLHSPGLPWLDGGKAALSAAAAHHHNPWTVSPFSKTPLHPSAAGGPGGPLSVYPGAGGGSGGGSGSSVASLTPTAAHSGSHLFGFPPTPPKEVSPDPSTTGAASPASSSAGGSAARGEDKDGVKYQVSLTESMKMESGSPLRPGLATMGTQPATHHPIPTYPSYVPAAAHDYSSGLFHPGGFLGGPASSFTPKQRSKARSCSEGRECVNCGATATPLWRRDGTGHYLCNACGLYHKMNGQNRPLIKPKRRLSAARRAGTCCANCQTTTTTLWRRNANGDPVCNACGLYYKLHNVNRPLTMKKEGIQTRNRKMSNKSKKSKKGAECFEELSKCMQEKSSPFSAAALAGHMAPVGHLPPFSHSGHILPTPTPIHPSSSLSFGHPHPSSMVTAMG
UniProt Q92786: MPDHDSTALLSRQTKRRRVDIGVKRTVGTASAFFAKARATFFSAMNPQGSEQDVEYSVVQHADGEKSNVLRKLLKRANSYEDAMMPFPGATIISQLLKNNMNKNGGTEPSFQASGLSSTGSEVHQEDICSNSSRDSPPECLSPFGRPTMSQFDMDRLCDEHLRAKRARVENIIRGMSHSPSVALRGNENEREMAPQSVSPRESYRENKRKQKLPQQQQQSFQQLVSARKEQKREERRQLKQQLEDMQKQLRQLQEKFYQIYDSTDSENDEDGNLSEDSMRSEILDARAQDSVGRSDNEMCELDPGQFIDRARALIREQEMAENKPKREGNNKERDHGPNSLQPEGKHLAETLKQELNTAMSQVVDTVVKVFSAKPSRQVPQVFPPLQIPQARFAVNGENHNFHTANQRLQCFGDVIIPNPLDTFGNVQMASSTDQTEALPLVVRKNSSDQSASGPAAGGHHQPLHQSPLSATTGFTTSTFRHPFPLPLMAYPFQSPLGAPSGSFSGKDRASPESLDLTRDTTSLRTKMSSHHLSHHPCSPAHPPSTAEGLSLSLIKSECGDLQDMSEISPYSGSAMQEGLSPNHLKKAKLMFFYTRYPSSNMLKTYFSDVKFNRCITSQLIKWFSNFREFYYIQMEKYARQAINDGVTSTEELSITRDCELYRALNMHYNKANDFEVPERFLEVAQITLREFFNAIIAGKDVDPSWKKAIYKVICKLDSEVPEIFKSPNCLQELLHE

B1: ERG (ETS-family transcription factor) (protein, UniProt P11308-4 1-479)
chain: MASTIKEALSVVSEDQSLFECAYGTPHLAKTEMTASSSSDYGQTSKMSPRVPQQDWLSQPPARVTIKMECNPSQVNGSRNSPDECSVAKGGKMVGSPDTVGMNYGSYMEEKHMPPPNMTTNERRVIVPADPTLWSTDHVRQWLEWAVKEYGLPDVNILLFQNIDGKELCKMTKDDFQRLTPSYNADILLSHLHYLRETPLPHLTSDDVDKALQNSPRLMHARNTGGAAFIFPNTSVYPEATQRITTRPDLPYEPPRRSAWTGHGHPTPQSKAAQPSPSTVPKTEDQRPQLDPYQILGPTSSRLANPGSGQIQLWQFLLELLSDSSNSSCITWEGTNGEFKMTDPDEVARRWGERKSKPNMNYDKLSRALRYYYDKNIMTKVHGKRYAYKFDFHGIAQALQPHPPESSLYKYPSDLPYMGSYHAHPQKMNFVAPHPPALPVTSSSFFAAPNPYWNSPTGGIYPNTRLPTSHMPSHLGTYY

Experiments:
[1] = biological target: GATA2 (human (endogenous in HDLEC)) (UniProt P23769); experiment: proximity ligation
[2] = biological target: prospero-related homeobox-1 (PROX1) (human (endogenous in HDLEC)) (UniProt Q92786); experiment: proximity ligation

Molecule | binding [1] | binding [2]
prospero-related homeobox-1 (PROX1) (from UniProt Q92786 1-737) | binds | 
B1 | binds | binds
